# From the supplement of paper PMC4635364
# Counter-ions that a name gives are not always drawn. The list shows a part of the results. This data set is noisy: repeats of one test often differ as much as different tests do.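 Human fetal ventral-midbrain neural progenitor line ReNCell VM, differentiated without mitogens. Images stained for doublecortin (early neurons) or tyrosine hydroxylase (dopaminergic neurons) were scored by blinded raters against untreated wells (0 = no change). Repeats and both raters were averaged, and compounds averaging 2 or higher were picked as hits for retesting.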
# Experiments:
# ReNCell VM [1] = experiment: neuronal differentiation score (DCX+ cell fraction vs untreated, manual image score) (score (-3 to 3)); higher = more neuronal differentiation; settings: 2 uM, 2 weeks
# ReNCell VM [2] = experiment: dopaminergic neuron differentiation score (TH+ cell fraction vs untreated, manual image score) (score (0 to 3)); higher = more TH+ dopaminergic neuron differentiation; settings: 2 uM, 4 weeks, BDNF 10 ng/ml + GDNF 10 ng/ml
compound,measurement,setting,value
NC(=O)COc1c(F)cc(SCCNS(=O)(=O)c2ccccc2)cc1F,neuronal differentiation score,ReNCell VM [1]; library: LOPAC,inactive: 0
same,dopaminergic neuron differentiation score,ReNCell VM [2]; library: LOPAC,inactive: 0
CN1CC[C@]2(CCN3CCc4c(oc5ccccc45)[C@@H]3C2)N(C)C1=O,neuronal differentiation score,ReNCell VM [1]; library: LOPAC,inactive: 1
same,dopaminergic neuron differentiation score,ReNCell VM [2]; library: LOPAC,active: 3
"CCCN1CCO[C@@H]2c3cc(O)ccc3OC[C@H]21 [S(+)-PD 128,907 hydrochloride]",neuronal differentiation score,ReNCell VM [1]; library: LOPAC,inactive: 0
same,dopaminergic neuron differentiation score,ReNCell VM [2]; library: LOPAC,inactive: 0
O=C1C=CC(=O)C=C1 [p-Benzoquinone],neuronal differentiation score,ReNCell VM [1]; library: LOPAC,inactive: 0
same,dopaminergic neuron differentiation score,ReNCell VM [2]; library: LOPAC,inactive: 0
CC(N)Cc1ccc(O)cc1 (stereo not drawn),neuronal differentiation score,ReNCell VM [1]; library: Spectrum,inactive: 0
same,dopaminergic neuron differentiation score,ReNCell VM [2]; library: Spectrum,inactive: 0
COc1ccc2c(c1)[nH]c1c(C)nccc12 [Harmine hydrochloride],neuronal differentiation score,ReNCell VM [1]; library: Phytochemical,inactive: -2
same,dopaminergic neuron differentiation score,ReNCell VM [2]; library: Phytochemical,inactive: 0
CCCN1C[C@H](CSC)C[C@@H]2c3cccc4[nH]cc(c34)C[C@H]21,neuronal differentiation score,ReNCell VM [1]; library: Spectrum,inactive: 0
same,dopaminergic neuron differentiation score,ReNCell VM [2]; library: Spectrum,inactive: 0
CN1CCCCC1c1ccc(-c2cccnc2)nc1 (stereo not drawn),neuronal differentiation score,ReNCell VM [1]; library: Spectrum,inactive: 0
same,dopaminergic neuron differentiation score,ReNCell VM [2]; library: Spectrum,inactive: 0
CN1[C@@H]2CC[C@H]1C[C@@H](OC(=O)C(CO)c1ccccc1)C2 (stereo partly drawn),neuronal differentiation score,ReNCell VM [1]; library: Spectrum,inactive: 0
same,dopaminergic neuron differentiation score,ReNCell VM [2]; library: Spectrum,inactive: 0
C[C@@]12N[C@@H](Cc3ccccc31)c1ccccc12 [(-)-MK-801 hydrogen maleate],neuronal differentiation score,ReNCell VM [1]; library: LOPAC,inactive: 0
same,dopaminergic neuron differentiation score,ReNCell VM [2]; library: LOPAC,inactive: 0
CC[N+]1(C)CCCC(OC(=O)C(O)(c2ccccc2)c2ccccc2)C1 (stereo not drawn) [Pipenzolate bromide],neuronal differentiation score,ReNCell VM [1]; library: Prestwick,inactive: 0
same,dopaminergic neuron differentiation score,ReNCell VM [2]; library: Prestwick,inactive: 0
C=CCN=C=S,neuronal differentiation score,ReNCell VM [1]; library: Spectrum,inactive: 0
same,dopaminergic neuron differentiation score,ReNCell VM [2]; library: Spectrum,inactive: 0
COC[C@]12CN(C=O)[C@@H]3[C@@H]4[C@H](OC)[C@H]1[C@@]3([C@@H](OC)C[C@H]2O)[C@@H]1C[C@@]2(O)[C@H](OC(=O)c3ccccc3)[C@@H]1[C@]4(OC(C)=O)[C@@H](O)[C@@H]2OC,neuronal differentiation score,ReNCell VM [1]; library: Spectrum,inactive: 0
same,dopaminergic neuron differentiation score,ReNCell VM [2]; library: Spectrum,inactive: 0
CC(N)Cc1c[nH]c2ccc(O)cc12 (stereo not drawn) [alpha-Methyl-5-hydroxytryptamine maleate],neuronal differentiation score,ReNCell VM [1]; library: LOPAC,inactive: 0
same,dopaminergic neuron differentiation score,ReNCell VM [2]; library: LOPAC,inactive: 0
"CN1CCC2(C)c3cc(O)ccc3N(C)C12 (single isomer, unassigned; (-)) [(-)-Eseroline fumarate salt]",neuronal differentiation score,ReNCell VM [1]; library: Prestwick,inactive: 0
same,dopaminergic neuron differentiation score,ReNCell VM [2]; library: Prestwick,inactive: 0
O=C1NC(=O)C(=O)C(=O)N1,neuronal differentiation score,ReNCell VM [1]; library: Spectrum,inactive: 0
same,dopaminergic neuron differentiation score,ReNCell VM [2]; library: Spectrum,inactive: 0
"CC12CCC3C(CCC4=C(O)C(=O)CCC43C)C1CCC2=O (stereo not drawn) [4-Androsten-4-ol-3,17-dione]",neuronal differentiation score,ReNCell VM [1]; library: LOPAC,inactive: 1
same,dopaminergic neuron differentiation score,ReNCell VM [2]; library: LOPAC,inactive: 0
N[C@H](C(=O)O)c1cc(O)no1 [Ibotenic acid],neuronal differentiation score,ReNCell VM [1]; library: Tocriscreen,inactive: 0
same,dopaminergic neuron differentiation score,ReNCell VM [2]; library: Tocriscreen,inactive: 0
O=C(O)Cc1cccnc1C(=O)O [Homoquinolinic acid],neuronal differentiation score,ReNCell VM [1]; library: Tocriscreen,inactive: 0
same,dopaminergic neuron differentiation score,ReNCell VM [2]; library: Tocriscreen,inactive: 0
CC(=O)NC1CCSC1=O (stereo not drawn),neuronal differentiation score,ReNCell VM [1]; library: Spectrum,inactive: 0
same,dopaminergic neuron differentiation score,ReNCell VM [2]; library: Spectrum,inactive: 0
CC(C)(C)[C@]1(O)CC2OC(=O)CC23C(=O)OC2OC(=O)[C@H](O)C231 (stereo partly drawn) [bilobalide],neuronal differentiation score,ReNCell VM [1]; library: Natural,inactive: 0
same,dopaminergic neuron differentiation score,ReNCell VM [2]; library: Natural,inactive: 0
CN1[C@@H]2CC[C@H]1C[C@@H](OC(=O)C(CO)c1ccccc1)C2 (stereo partly drawn) [atropine],neuronal differentiation score,ReNCell VM [1]; library: Natural,inactive: 0
same,dopaminergic neuron differentiation score,ReNCell VM [2]; library: Natural,inactive: 0
CC(O)(CS(=O)(=O)c1ccc(F)cc1)C(=O)Nc1ccc(C#N)c(C(F)(F)F)c1 (stereo not drawn),neuronal differentiation score,ReNCell VM [1]; library: Spectrum,inactive: 0
same,dopaminergic neuron differentiation score,ReNCell VM [2]; library: Spectrum,inactive: 0
CCCN1C[C@H](CSC)C[C@@H]2c3cccc4[nH]cc(c34)C[C@H]21 [Pergolide methanesulfonate],neuronal differentiation score,ReNCell VM [1]; library: LOPAC,inactive: 0
same,dopaminergic neuron differentiation score,ReNCell VM [2]; library: LOPAC,inactive: 0
C=C(C)[C@H]1Cc2c(ccc3c(=O)c4c(oc23)COc2cc(OC)c(OC)cc2-4)O1,neuronal differentiation score,ReNCell VM [1]; library: Spectrum,inactive: 0
same,dopaminergic neuron differentiation score,ReNCell VM [2]; library: Spectrum,inactive: 0
COc1ccc2c(c1OC)C(=O)O[C@@H]2[C@H]1c2cc3c(cc2CCN1C)OCO3,neuronal differentiation score,ReNCell VM [1]; library: Spectrum,inactive: 0
same,dopaminergic neuron differentiation score,ReNCell VM [2]; library: Spectrum,inactive: 1
CN1C[C@H](C(=O)N[C@]2(C)O[C@@]3(O)[C@@H]4CCCN4C(=O)[C@H](Cc4ccccc4)N3C2=O)C[C@@H]2c3cccc4[nH]cc(c34)C[C@H]21 [Dihydroergotamine methanesulfonate],neuronal differentiation score,ReNCell VM [1]; library: LOPAC,inactive: 0
same,dopaminergic neuron differentiation score,ReNCell VM [2]; library: LOPAC,inactive: 0
CCN(CC)C(=O)NC1CC2c3cccc4[nH]cc(c34)CC2N(C)C1 (stereo not drawn) [R(+)-Terguride],neuronal differentiation score,ReNCell VM [1]; library: LOPAC,inactive: 0
same,dopaminergic neuron differentiation score,ReNCell VM [2]; library: LOPAC,active: 3
COc1c2c(cc3c1OCO3)CC[N+](C)=C2,neuronal differentiation score,ReNCell VM [1]; library: Spectrum,inactive: 0
same,dopaminergic neuron differentiation score,ReNCell VM [2]; library: Spectrum,inactive: 0
Cc1onc(O)c1C[C@H](N)C(=O)O,neuronal differentiation score,ReNCell VM [1]; library: Tocriscreen,inactive: 0
same,dopaminergic neuron differentiation score,ReNCell VM [2]; library: Tocriscreen,inactive: 0
NC(=S)N/N=C/c1coc2ccccc2c1=O.[Cl][Cu][Cl],neuronal differentiation score,ReNCell VM [1]; library: Tocriscreen,inactive: 0
same,dopaminergic neuron differentiation score,ReNCell VM [2]; library: Tocriscreen,inactive: 0
C=CCC1(CC(C)C)C(=O)NC(=O)NC1=O [Butalbital],neuronal differentiation score,ReNCell VM [1]; library: Prestwick,inactive: 0
same,dopaminergic neuron differentiation score,ReNCell VM [2]; library: Prestwick,inactive: 0
CNC(C)(C)Cc1ccccc1,neuronal differentiation score,ReNCell VM [1]; library: Spectrum,inactive: 0
same,dopaminergic neuron differentiation score,ReNCell VM [2]; library: Spectrum,inactive: 0
C[C@@H]1O[C@@H](O[C@H]2CC[C@]3(C=O)[C@H]4CC[C@]5(C)[C@@H](C6=CC(=O)OC6)CC[C@]5(O)[C@@H]4CC[C@]3(O)C2)[C@H](O)[C@H](O)[C@H]1O [convallatoxin],neuronal differentiation score,ReNCell VM [1]; library: Natural,inactive: 0
same,dopaminergic neuron differentiation score,ReNCell VM [2]; library: Natural,inactive: 0

# Random excerpt: 2 records from the list, in no set order.
compound,measurement,setting,value
C[C@@H]1O[C@@H](O[C@H]2CC[C@]3(C=O)[C@H]4CC[C@]5(C)[C@@H](C6=CC(=O)OC6)CC[C@]5(O)[C@@H]4CC[C@]3(O)C2)[C@H](O)[C@H](O)[C@H]1O [convallatoxin],dopaminergic neuron differentiation score,ReNCell VM [2]; library: Natural,inactive: 0
CC(N)Cc1c[nH]c2ccc(O)cc12 (stereo not drawn) [alpha-Methyl-5-hydroxytryptamine maleate],dopaminergic neuron differentiation score,ReNCell VM [2]; library: LOPAC,inactive: 0

# Given as tab-separated lines: entries from further up.
compound	measurement	setting	value
CN1CCC2(C)c3cc(O)ccc3N(C)C12 (single isomer, unassigned; (-)) [(-)-Eseroline fumarate salt]	dopaminergic neuron differentiation score	ReNCell VM [2]; library: Prestwick	inactive: 0
C=C(C)[C@H]1Cc2c(ccc3c(=O)c4c(oc23)COc2cc(OC)c(OC)cc2-4)O1	neuronal differentiation score	ReNCell VM [1]; library: Spectrum	inactive: 0
